# PubChem BioAssay AID2073 (Sanford-Burnham Center for Chemical Genomics, 2009)
# Chains of the proteins cited; added tags and fusions are not shown.
# UniProt Q00975, whole entry, looked up: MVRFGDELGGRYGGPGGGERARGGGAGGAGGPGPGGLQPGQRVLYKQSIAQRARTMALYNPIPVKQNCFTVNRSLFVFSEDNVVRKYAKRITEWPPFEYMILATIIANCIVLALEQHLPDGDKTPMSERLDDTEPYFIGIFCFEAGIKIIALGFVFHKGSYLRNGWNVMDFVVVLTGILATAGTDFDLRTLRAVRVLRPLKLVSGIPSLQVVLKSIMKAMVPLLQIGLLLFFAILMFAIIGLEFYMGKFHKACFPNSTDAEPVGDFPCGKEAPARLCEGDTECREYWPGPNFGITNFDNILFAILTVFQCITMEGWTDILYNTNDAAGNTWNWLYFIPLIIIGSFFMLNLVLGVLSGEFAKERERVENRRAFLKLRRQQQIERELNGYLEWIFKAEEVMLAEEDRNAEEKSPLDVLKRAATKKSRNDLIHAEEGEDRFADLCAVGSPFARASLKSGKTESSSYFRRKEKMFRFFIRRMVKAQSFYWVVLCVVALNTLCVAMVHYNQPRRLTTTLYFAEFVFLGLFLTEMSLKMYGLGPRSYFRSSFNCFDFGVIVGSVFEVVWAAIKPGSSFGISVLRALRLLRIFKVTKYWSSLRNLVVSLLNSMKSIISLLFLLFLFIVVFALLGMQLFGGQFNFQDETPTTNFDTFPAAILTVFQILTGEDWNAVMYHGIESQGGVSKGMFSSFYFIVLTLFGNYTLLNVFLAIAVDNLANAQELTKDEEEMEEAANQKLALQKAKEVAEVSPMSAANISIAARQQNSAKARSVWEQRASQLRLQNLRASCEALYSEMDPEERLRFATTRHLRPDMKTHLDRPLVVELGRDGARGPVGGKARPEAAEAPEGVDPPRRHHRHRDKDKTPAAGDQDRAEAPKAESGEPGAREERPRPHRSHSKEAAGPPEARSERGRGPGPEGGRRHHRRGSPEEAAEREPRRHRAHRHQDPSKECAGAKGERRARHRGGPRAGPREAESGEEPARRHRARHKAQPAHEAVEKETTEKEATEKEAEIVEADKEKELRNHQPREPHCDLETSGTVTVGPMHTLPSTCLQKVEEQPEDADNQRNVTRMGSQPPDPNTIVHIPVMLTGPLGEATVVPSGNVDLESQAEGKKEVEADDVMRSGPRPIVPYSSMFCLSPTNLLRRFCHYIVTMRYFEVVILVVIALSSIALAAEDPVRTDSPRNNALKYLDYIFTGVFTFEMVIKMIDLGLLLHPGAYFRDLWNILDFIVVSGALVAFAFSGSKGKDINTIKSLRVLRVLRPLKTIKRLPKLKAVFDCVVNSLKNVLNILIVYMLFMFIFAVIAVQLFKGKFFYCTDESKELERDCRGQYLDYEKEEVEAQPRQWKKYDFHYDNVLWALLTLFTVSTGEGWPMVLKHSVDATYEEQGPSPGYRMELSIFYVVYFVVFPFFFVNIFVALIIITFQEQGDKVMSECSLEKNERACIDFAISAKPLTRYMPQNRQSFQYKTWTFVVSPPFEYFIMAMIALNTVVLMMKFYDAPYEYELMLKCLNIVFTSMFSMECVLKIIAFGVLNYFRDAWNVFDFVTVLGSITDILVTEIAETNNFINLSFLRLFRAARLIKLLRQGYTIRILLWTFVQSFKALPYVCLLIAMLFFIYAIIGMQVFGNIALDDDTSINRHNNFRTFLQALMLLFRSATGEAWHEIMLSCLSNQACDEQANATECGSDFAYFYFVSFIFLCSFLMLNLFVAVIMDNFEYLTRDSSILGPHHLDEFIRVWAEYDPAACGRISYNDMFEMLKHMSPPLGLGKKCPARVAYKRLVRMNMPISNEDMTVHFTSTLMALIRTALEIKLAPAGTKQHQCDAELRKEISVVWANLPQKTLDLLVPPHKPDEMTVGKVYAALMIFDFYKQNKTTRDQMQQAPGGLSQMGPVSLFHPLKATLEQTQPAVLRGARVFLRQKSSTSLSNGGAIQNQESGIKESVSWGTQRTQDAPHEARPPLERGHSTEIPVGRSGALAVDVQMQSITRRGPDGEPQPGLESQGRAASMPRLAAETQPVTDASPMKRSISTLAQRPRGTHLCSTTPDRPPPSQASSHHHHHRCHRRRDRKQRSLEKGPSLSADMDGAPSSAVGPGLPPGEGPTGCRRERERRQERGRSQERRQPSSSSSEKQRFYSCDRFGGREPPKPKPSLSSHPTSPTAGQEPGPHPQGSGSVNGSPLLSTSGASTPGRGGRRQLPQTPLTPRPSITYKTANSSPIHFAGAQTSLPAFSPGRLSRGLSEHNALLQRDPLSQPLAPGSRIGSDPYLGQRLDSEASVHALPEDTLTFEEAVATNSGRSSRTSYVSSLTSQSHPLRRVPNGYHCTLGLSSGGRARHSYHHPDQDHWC
# The whole screen tested about 290,000 compounds, of which about 570 (0.2%) were called active. Inconclusive means that the source gave no clear call. Such entries were picked first, then a sample of the others. Cut-off read from the data, not from the text of the source: active = inhibition mostly above about 51% (no sharp cut-off); inconclusive = no clear call, values can overlap the other calls; inactive = mostly below about 53%.
# Biological target: Voltage-dependent N-type calcium channel subunit alpha-1B (Homo sapiens) (UniProt Q00975)
# Assay: disruptors of CaV2.2 binding to Mint1 – biochemical, HTRF (AID 2073)
# Details: HTRF protein-protein interaction, Mint1-CaV2.2; at 20 µM; hits give high values
row,SMILES,inhibition
1,CCN1Cc2c(/C=C/c3ccccc3)nc3ccc(OC)cc3c2N(c2cccc(Cl)c2)C1,inconclusive: 53.9%
2,Nc1ccc2nc(-c3ccccc3)sc2c1,inconclusive: 59%
3,COc1ccccc1OCCNC(=O)c1ccc(Br)cc1,inconclusive: 67.8%
4,Cc1c(C(=O)N(C)C2CC(C)(C)NC(C)(C)C2)oc2c(F)cccc12,inconclusive: 89.1%
5,COc1ccc(OCCc2nnc(N)s2)cc1,inconclusive: 84.8%
6,CN(Cc1cnn(-c2ccccc2)c1)C(=O)C1CCC(=O)N(C2CC2)C1 (configuration not stated),inconclusive: 93.8%
7,Cc1cc(C)c2nc(N3CCOCC3)c(C#N)cc2c1,inconclusive: 53.4%
8,Cc1ccc(-n2nc(C)c3c(-c4cccs4)c(C#N)c(N)nc32)cc1,inconclusive: 56.4%
9,CCc1ccc(Nc2n[n+](-c3ccccc3)c(-c3ccc(OC)c(Br)c3)s2)cc1,inactive: 19.2%
10,CC1=C(C(=O)O)N2C(=O)[C@@H](NC(=O)[C@H](N)c3ccccc3)[C@H]2SC1,inactive: -20.5%
11,COc1ccc(-c2c(C)nc(N)nc2-c2ccc(OCc3ccc(C)cc3)cc2O)cc1OC,inconclusive: 57.8%
12,COCCCNc1nc2c(-c3cccc(C(F)(F)F)c3)nnn2c2ccccc12,inconclusive: 50%
13,CCOC(=O)CNC(=S)N(Cc1ccccc1)Cc1ccccc1F,inconclusive: 66.7%
14,Cc1ccc(S(=O)(=O)Nc2cccc3ncccc23)cc1,inconclusive: 89.2%
15,Cc1sc2ncnc(NCC3CCCO3)c2c1C (configuration not stated),inconclusive: 69.6%
16,CN(C)CCCN(C(=O)c1ccc(S(=O)(=O)N2CCc3ccccc32)cc1)c1nc2ccc(F)cc2s1,inconclusive: 63.5%
17,Cc1cccc(/C=N/NC(=O)NC2CCCCC2)c1,inactive: -3.7%
18,Cc1ccc(S(=O)(=O)N[C@H](C(=O)Oc2ccc3c(C(F)(F)F)cc(=O)oc3c2)c2ccccc2)cc1,inconclusive: 58%
19,CNc1oc(-c2cccc3ccccc23)nc1C#N,inconclusive: 54.6%

row,SMILES,inhibition
1,COc1ccc2c(c1)cc(C(=O)N/N=C/c1c(O)c(C(=O)O)cc3ccccc13)n2C,inconclusive: 68.9%
2,COc1cc2c(cc1NC(=O)C(C)N1CCN(S(=O)(=O)c3ccc(C)c(C)c3)CC1)oc1ccccc12 (configuration not stated),inactive: 12.7%
3,CC(C)(C)NC(=O)CSC(=Nc1cccc(F)c1)NC#N,inactive: -25.9%
4,COc1ccc(/C=N/NC(=O)c2ccc(OC)c(OC)c2)cc1COc1c(F)c(F)c(F)c(F)c1F,inconclusive: 75.1%
5,COc1ccc2c(c1)cc1n2CCN=C1N,inconclusive: 60.1%
6,CCN(CC)C(=O)CSc1nc2ccccc2c(=O)[nH]1,inconclusive: 78.2%
7,O=C1CCCN1CCCNc1nc2c(S(=O)(=O)c3ccccc3)nnn2c2ccc(Cl)cc12,inconclusive: 81.9%
8,Cc1ccsc1C1C2=C(CCCC2=O)Nc2ncnn21 (configuration not stated),inconclusive: 51%
9,C=CCSc1nc2sc3c(c2c(=O)[nH]1)CC(C)(CC)OC3 (configuration not stated),inconclusive: 58.1%
10,CCN1CCCC1CNC(=O)C(=O)NC1CC1 (configuration not stated),inconclusive: 56.2%
11,C=CCn1c(=O)c(C(=O)NCCc2ccc(Cl)cc2)c(O)c2cc(OC)c(OC)cc21,inconclusive: 70.3%
12,O=c1oc2ccccc2cc1-c1nc2ccccc2o1,inconclusive: 60.9%
13,CC1(C)CC(=O)C2=C(C1)NCN(Cc1ccccc1)C2,inconclusive: 98.4%
14,COC(=O)c1ccc2c(c1)S(=O)(=O)NC(=NCCCN1CCOCC1)S2,inconclusive: 55.7%
15,Cc1ccc(S(=O)(=O)N2CCN(C(=O)c3ccc(Cl)nc3)CC2)cc1,inactive: 3%
16,COc1cc(C(=O)Nc2ccc(-c3nc4cc(C)ccc4o3)c(O)c2)cc(OC)c1OC,inconclusive: 64.4%
17,CCCCOc1ccc(-c2cc(C(F)(F)F)c(C#N)c(SCC(=O)O)n2)cc1,active: 60.7%
18,O=C(N/N=C/c1ccccc1)NC1CCCCC1,inconclusive: 61.6%
19,CCOC(=O)c1ccccc1NC1c2ccccc2C(=O)N1c1cc(C)ccn1 (configuration not stated),inconclusive: 63.3%

row,SMILES,inhibition
1,Cc1nc2ccccc2c(=O)n1/N=C/c1ccccc1OC(F)F,inconclusive: 67.1%
2,COc1ccc(-c2cc3ccc(OCc4nn[nH]n4)cc3oc2=O)cc1,inconclusive: 71.1%
3,Cc1ccc(C(=O)CNc2ccc(Br)cc2)cc1,inconclusive: 84.9%
4,O=C(CSCc1ccc(Cl)cc1)N/N=C/c1ccco1,inconclusive: 55.7%
5,Cc1ccc(C(=O)N/C(=C\c2ccc(-c3cccc([N+](=O)[O-])c3)o2)C(=O)NCCCN2CCOCC2)cc1,inactive: -1.4%
6,Cc1ccc(/C([O-])=C(/C(=S)NCc2ccccc2)[n+]2cccc(CO)c2)cc1[N+](=O)[O-],inconclusive: 65.3%
7,Cn1c(/C=C/c2cccc([N+](=O)[O-])c2)nc2ccccc2c1=O,inactive: -20.2%
8,O=C(c1ccc(COc2ccc(F)cc2)o1)n1cc(Br)cn1,inactive: 8%
9,COc1ccc(-n2ccnc2SCC(=O)NCc2ccco2)c(OC)c1,inconclusive: 62.3%
10,CCN(CC)S(=O)(=O)c1cccc(-c2n[nH]c(=S)n2CC(C)C)c1,inconclusive: 79.5%
11,O=C(N/N=C/c1c[nH]c2ccccc12)c1[nH]c2ccc(Br)cc2c1-c1ccccc1,inconclusive: 58.2%
12,COCc1nc2ccccc2n1Cc1ccccc1,inconclusive: 85.2%
13,CC1=CC(=O)c2ccccc2C1=O,inactive: -11.2%
14,Cc1cccc(N(C)Cc2nnc(-c3cccc(Br)c3)o2)c1,inconclusive: 75.5%
15,O=S(=O)(c1ccc(-c2csc(Nc3ccc(Br)cc3)n2)cc1)N1CCCC1,inactive: -7.1%
16,CC(C)c1cc(NC(=O)c2ccccc2)cc(C(C)C)c1O,inconclusive: 76.2%
17,O=C(Nc1ccccc1Cl)c1ccccc1,inactive: 23.6%
18,CC(=O)c1ccc(-c2ccc(C(=O)N3CCCc4ccccc43)o2)cc1,inconclusive: 54.7%
19,O=C(CCc1nc2ccccc2[nH]c1=O)N/N=C/c1ccccc1,inconclusive: 66.4%

# A run of entries taken from the entries so far, for reference:
row,SMILES,inhibition
10,CCN(CC)S(=O)(=O)c1cccc(-c2n[nH]c(=S)n2CC(C)C)c1,inconclusive: 79.5%
11,O=C(N/N=C/c1c[nH]c2ccccc12)c1[nH]c2ccc(Br)cc2c1-c1ccccc1,inconclusive: 58.2%
